# Source: PubChem BioAssay AID504786 (Drosophila RNAi Screening Center, 2011)
# Test: 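Fly genes required for HIF-dependent transcription when hypoxia is mimicked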 (primary screen)
# Cell system: Drosophila S2 cells with a stable HIF luciferase reporter
# Reagents: long dsRNA against Drosophila genes, about 0.2 µg dsRNA per well of a 384-well plate
# Duration: three days of knock-down, then 20 h of DFO before reading
# Conditions: desferrioxamine (DFO) at 100 µM, an iron chelator that mimics hypoxia, for 20 h
# Measured: 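HIF reporter luminescence in cells given 100 µM DFO for 20 h, using the mouse ldh-a hypoxia-response element, scored as per-plate z-scores; higher means greater loss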
# Direction: z-score: higher = stronger loss of HIF reporter signal
# The deposit covers about 21,000 reagents; below is a random part of those with a known target gene and a result. 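Primary screen; positive scores mean lost reporter signal, so the sign may be inverted from the usual convention.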 Reagents against one gene are numbered here. A plus sign joins genes that one reagent is predicted to hit.
gene,reagent,"z-score, replicate 1","z-score, replicate 2","z-score, replicate 3","z-score, replicate 4"
Myt1,1,0.4,-0.8,,
CG15432,1,0.1,1.9,,
Gli,1,0.3,-0.6,,
CG1309,1,-0.1,-0.2,,
CG7120,1,-0.1,-0.4,,
CG12134,1,-0.3,0.2,,
CG7231,1,-0.2,-0.7,,
CAH7,1,-0.3,-0.2,,
CG12923,1,-0.3,-0.1,,
GstT2,1,-0.3,-0.6,,
Tsp,1,-0.3,-0.2,,
Tsp,2,-0.4,-0.3,,
CstF64,1,-0.1,-0.2,,
Prim2,1,1,1.3,,
CG30291,1,-0.8,-0.4,,
ATP6 (retired record),1,-0.1,-0.4,,
CG32259,1,-0.1,0.5,,
Idgf1,1,-0.3,-0.1,,
gcm,1,-0.3,-0.2,,
coil,1,-0.3,-0.5,,
cyp33,1,9.3,6.3,,
Ir54a + sub,1,-0.3,-0.2,,
CG42714,1,0,0.1,,
CG1602,1,-0.2,0,,
Dop1R1,1,-0.4,-0.2,,
Dop1R1,2,-0.4,-0.8,,
CG13837,1,-0.3,-0.3,,
Mdr49,1,0,0.1,,
CR11386 + CR33222,1,-0.2,-0.3,,
stol,1,7.4,-0.6,,
CG4630,1,-0.2,-0.1,,
Ir75b,1,-0.2,-0.6,,
RhoBTB,1,-0.3,-0.3,,
Prosbeta4R2,1,-0.3,-0.2,,
mbt,1,-0.3,-0.5,,
CG11703,1,-0.2,-0.3,,
Obp46a,1,-0.2,0.1,,
CG12576,1,-0.6,-0.4,,
DMAP1,1,-0.2,-0.4,,
SMC6,1,-0.4,-0.4,,
CG42268,1,-0.4,-0.7,,
CG42268,2,-0.3,-0.6,,
mthl14,1,-0.2,-0.3,,
Syn,1,-0.4,-0.9,,
CG15865,1,-0.1,-0.2,,
CG2201,1,0.2,0.4,,
CG14005,1,-0.3,-0.6,,
CG4860,1,-0.2,-0.2,-0.6,-0.2
INPP5E,1,-0.2,-0.4,,
CG6937,1,2.8,3.4,,
CG15369,1,-0.2,-0.1,,
CG18268 + CG3014,1,-0.2,-0.5,,
CG5890,1,-0.2,-0.2,,
CG6443,1,-0.4,0.5,,
Ugt302C1,1,-0.4,-0.8,,
CycY,1,-0.4,-0.2,,
Cyp1,1,-0.3,0,,
CG12935,1,-0.3,-0.3,,
CG15336,1,-0.3,-0.3,,
CG43672,1,-0.1,0,,
CG43672,2,-0.2,-0.6,,
bc10,1,-0.3,-0.5,,
Wnt4,1,-0.7,0.1,,
Wnt4,2,-0.2,0,,
Mhc,1,-0.2,1.8,,
CG14689,1,-0.2,0.7,,
CG10182,1,0.3,1.2,,
CG14280,1,-1.1,-0.3,,
CngB,1,-0.3,0.2,,
CG12644 (retired record),1,-0.1,-1.4,,
TwdlE,1,-0.3,-0.3,,
CG14315,1,-0.4,-0.2,,
disp,1,-0.1,-0.1,,
Or30a,1,-0.4,0.1,,
ppk21,1,-0.5,-0.6,,
CG7246,1,2.3,0.7,,
shot,1,-0.3,-0.2,,
shot,2,-0.1,-0.2,,
shot,3,-0.3,-0.4,,
CheA75a,1,-0.3,-0.6,,
gammaTub37C,1,-0.3,0.3,,
Fdx2,1,-0.2,-0.2,,
CG4194,1,-0.2,0.1,,

Ordered by “z-score, replicate 1” (descending): 6 of the entries above.
gene,reagent,"z-score, replicate 1","z-score, replicate 2","z-score, replicate 3","z-score, replicate 4"
cyp33,1,9.3,6.3,,
CG42714,1,0,0.1,,
CG1602,1,-0.2,0,,
coil,1,-0.3,-0.5,,
Ir54a + sub,1,-0.3,-0.2,,
Dop1R1,1,-0.4,-0.2,,
